Library screen at single concentrations

Measurements from “University of Dundee, Small-Polar-MMV Screening Library” (2021), ChEMBL document CHEMBL3988442.

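Whole-cell growth test on Mycobacterium tuberculosis, read after 4 days in a medium based on cholesterol and the lipid DPPC; the read-out is not stated. Tested at 500 µM. Direction is inferred from retests: higher values go with more growth inhibition. Of about 18,000 compounds tested this way, about 900 (5%) reached 50% or more in at least one test.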

Values are the deposited “Percent Effect”, in %.
The controls that fix the scale are not given in the record; negative values are as filed.
The compounds are a random part of those screened.

For Cn1c(Sc2ccc(C#N)cn2)nnc1C1CC1 the result was 11.19%. With CC(CO)NC(=O)c1nn(C)cc1N (stereo not given) the screen gave 5.854%. Result for CN(C)C(=O)CN(C)C(=O)COc1ccc(Cl)cc1Cl was -7.947%. CC1=NOC(C)(CNC(=O)Nc2ccc(F)cc2)C1 (stereo not given) read 17.03%.

O=S(=O)(CCNCc1cccnc1)N1CCCC1 gave 13.86%. CC(C)c1nnc(C2COCCN2)o1 (stereo not given) gave -26.68%. OCC1CSc2ccccc21 (stereo not given) gave 10.12%. For CC(C)N1CCN(Cc2ccc(N)nc2)CC1 the result was 6.085%.

O=C(CN1CCNC(=O)C1)NCCOc1ccccc1 read 3.527%. Fc1ccc2nc(N3CCCNCC3)oc2c1F gave 68.98%. Result for O=C(CCc1ncc[nH]1)Nc1nc2ccccc2[nH]1 was -23.95%. With CC(C)N1CC(O)C1 the screen gave -2.817%.

With CC(C)O[C@@H]1CCNC1 the screen gave -8.539%. With COc1c(C)cnc(CN(C)S(N)(=O)=O)c1C the screen gave -0.5009%. Result for OC1(c2ccccc2)CCCNC1 (stereo not given) was -22.84%. Result for CC1CCCCN1CCCNC(=O)c1cc[nH]n1 (stereo not given) was -51.68%.

With COc1cc(-c2nnn(C)n2)ccc1O the screen gave 14.72%. For NS(=O)(=O)c1cc(Cl)cc(CO)c1 the result was -22.26%. COCCn1cnnc1SCC(C)C gave 28.57%. Cc1ccc(CNC(=O)NCC(C)(C)CC(C)O)cn1 (stereo not given) read 11.15%.

O=C(CSc1ccncc1)NCCN1CCCC1=O read 2.152%. COCCCNC(=O)CN1CCC2(CC1)OCCO2 gave 2.223%. For CC(C)Cc1cc(N)sn1 the result was 13.76%. With CC(=O)N1CCN(c2nccn2C)CC1 the screen gave -5.474%.

CCCn1c(O)nnc1SCc1cccnc1 read 11.68%. O=C(CSc1ccncc1)N1CCCC2(CCOC2)C1 (stereo not given) read 2.948%. CC(C)Oc1ccc(S(=O)(=O)N(C)C(C)CN)cc1 (stereo not given) read 44.66%. Result for CC(=O)N1CCOC(CN)C1 (stereo not given) was 8.82%.

For Cc1cnn(CC(C)NCCCS(C)(=O)=O)c1 (stereo not given) the result was 8.841%. For CN(CCCN)C(=O)Cc1cccc(Br)c1 the result was 4.87%. Result for O=C(CCc1ccncc1)N1CCCCC1 was 21.28%. For CCCn1cc(NC(C(N)=O)c2ccccc2)cn1 (stereo not given) the result was 29.01%.

NCC(CO)Cc1ccc(F)c(F)c1 (stereo not given) gave 10.27%. With O=C(CN(CC(=O)NC1CC1)C1CCCC1)NC1CC1 the screen gave 6.234%. CNC(=O)C(N)C(C)C (stereo not given) read -11.09%. For CCCNC(=O)c1n[nH]c2c1CC(C)CC2 (stereo not given) the result was -14.73%.

CCN1C[C@H](NC(=O)c2cnc(SC)nc2)[C@@H](OC)C1 read 25.78%. CCS(=O)(=O)c1ccc(CN)cc1 read -8.735%. CNC(=O)c1ccc(N2CCOCC2)c(F)c1 gave -16.57%. With Cc1ccc(NC(=O)c2nn(C)cc2Br)nc1 the screen gave 10.14%.

CCN1CCN(C(=O)Cc2ccc(OC)cc2)CC1 read 6.885%. Result for Cc1nnc(CN)o1 was -2.058%. COCC(O)CN(C)C(=O)c1cccc(Br)c1Cl (stereo not given) gave 14.15%. CCCn1c(C)nnc1CSc1ncnn1C read -10.3%.

Result for CN1CCC(N)c2ccccc21 (stereo not given) was -1.923%. For CN1CCC(CNC(=O)CNS(=O)(=O)c2cccs2)C1 (stereo not given) the result was -9.061%. CNC(=O)NC(=O)CSc1nnc(-c2ccccc2)o1 read -10.16%. COC(=O)c1ccc(OC)c(S(=O)(=O)NC2CC2)c1 gave 12.86%.

For Cc1ccc(Br)c(NCC(=O)N2CCOCC2)c1 the result was -4.899%. For Cc1cccnc1CC(C)NC(=O)c1cnco1 (stereo not given) the result was 3.953%. Cc1nnc(SCCNC(=O)CC2C=CS(=O)(=O)C2)s1 (stereo not given) gave -18.45%.

For reference, 5 entries once more:

SMILES	percent effect
Cc1ccc(Br)c(NCC(=O)N2CCOCC2)c1	-4.899%
CN1CCC(N)c2ccccc21 (stereo not given)	-1.923%
CC(=O)N1CCN(c2nccn2C)CC1	-5.474%
CNC(=O)C(N)C(C)C (stereo not given)	-11.09%
CC(C)Oc1ccc(S(=O)(=O)N(C)C(C)CN)cc1 (stereo not given)	44.66%